# Measured values: patent CN115536746A
# These are yes or no findings as the source states them, for the method shown. Some binding calls cover weakened binding; strength is not graded here.
# T1: 猴源CRTAM蛋白全长 on CHO-K1-cCRTAM cells (猴源 (食蟹猴, cynomolgus monkey))
# T1 sequence: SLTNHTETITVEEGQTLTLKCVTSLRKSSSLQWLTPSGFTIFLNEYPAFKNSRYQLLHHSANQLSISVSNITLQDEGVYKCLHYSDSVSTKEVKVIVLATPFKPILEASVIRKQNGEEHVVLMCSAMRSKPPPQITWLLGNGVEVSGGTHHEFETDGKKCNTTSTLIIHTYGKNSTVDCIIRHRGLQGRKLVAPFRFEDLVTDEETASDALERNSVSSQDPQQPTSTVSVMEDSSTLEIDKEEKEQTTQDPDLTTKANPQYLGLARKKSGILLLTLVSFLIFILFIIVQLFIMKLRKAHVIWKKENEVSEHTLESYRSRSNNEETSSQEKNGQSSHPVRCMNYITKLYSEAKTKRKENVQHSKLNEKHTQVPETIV
# Molecular target: T1, 猴源CRTAM蛋白全长 on CHO-K1-cCRTAM cells (猴源 (食蟹猴, cynomolgus monkey))
# Assay: flow cytometry on CHO-K1-cCRTAM cells
binder,measurement,value
"HuC94-31 (antibody, V domains shown) VH: EVQLLESGGGLVQPGGSLRLSCAASGFTFSTSAMSWVRQAPGKGLEWVATISSGGDYTYYSDNVKGRFTISRDNSKSTLYLQMNSLRAEDTAVYYCTLGYDEADYWGQGSLLTVSS VL: DIQMTQSPSSLSASVGDRVTITCRASQDISNYLNWYQQKPGKAPKLLIYYTSRLHSGVPSRFSGSGSGTDYTFTISSLQPEDIATYYCQQGDTFPWTFGGGTKLEIK",binding,binds
